According to paper PMC12431657, “Discovery and mechanistic insights of dibenzoylmethane as a broad spectrum inhibitor of coronavirus” (PLOS Pathogens, 2025):
Where a name gives a salt, the structure may show the parent alone. Read-outs that look alike come from different tables or passages of the source. In all, about 3,300 compounds went through this assay and about 95 (3%) showed an effect of 50% or more. This is one part of the list.

Test system: HCoV-229E
Design: species or system Huh-7; HTS, protection from HCoV-229E induced cell death, luminescent cell viability (CellCounting-Lite 2.0), inhibition rate
Conditions: 24 h post infection, 1 h compound pre-incubation, 10 µM, inhibitor

Row | SMILES | 229E Inhibition rate [%] | 229E Inhibition rate (229E Inhibition rate, 24 h) [%]
1 | CCCCCCCCCCCCCCCCCCCC(=O)O [Arachidic acid] | 14.3 | 
2 | COC(=O)[C@@]12OC[C@]34[C@H]([C@@H](O)[C@@H]1O)[C@@]1(C)CC(=O)C(O)=C(C)[C@@H]1C[C@H]3OC(=O)[C@H](OC(C)=O)[C@@H]24 [Bruceine B] | 14.7 | 
3 | CC(C)C1=CC(=O)[C@@](C)([C@H]2[C@H](O)C[C@@]3(C)[C@@H]4CC=C5[C@@H](CC[C@@H](O[C@@H]6O[C@H](CO)[C@@H](O)[C@H](O)[C@H]6O[C@@H]6O[C@@H](C)[C@H](O)[C@@H](O)[C@H]6O)C5(C)C)[C@]4(C)C(=O)C[C@]23C)O1 [Picfeltarraenin IB] | 14 | 
4 | CC1=C[C@]23C(=O)[C@H](C=C4COC(C)(C)OC4C24OC(C)(C)OC14)[C@@H]1[C@H](CC3C)C1(C)C (stereo partly drawn) [Ingenol-3,4,5,20-diacetonide] | 11.6 | 
5 | COc1ccc(-c2cc(=O)c3c(O)cc(O)cc3o2)cc1-c1c(O)cc(O)c2c(=O)cc(-c3ccc(O)cc3)oc12 [Bilobetin] | 22.4 | 
6 | C[C@H](CCC(=O)NCC(=O)O)[C@H]1CC[C@H]2[C@@H]3[C@H](O)C[C@@H]4C[C@H](O)CC[C@]4(C)[C@H]3C[C@H](O)[C@]12C [Glycocholic acid (hydrate)] |  | 4.1
7 | CN=C(N)N [1-Methylguanidine hydrochloride] | 10.7 | 
8 | C=C(CCC=C(C)C)[C@H]1CC[C@]2(C)[C@@H]1[C@H](O)C[C@@H]1[C@@]3(C)CC[C@H](O)C(C)(C)[C@@H]3[C@@H](O[C@@H]3O[C@H](CO)[C@@H](O)[C@H](O)[C@H]3O[C@@H]3O[C@@H](C)[C@H](O)[C@@H](O)[C@H]3O)C[C@]12C [Ginsenoside Rg6] | 10.2 | 
9 | C=C[C@H]1[C@H](O[C@@H]2O[C@H](CO)[C@@H](O)[C@H](O)[C@H]2O)OC=C2C(=O)OCC[C@]21O [Swertiamarin] | 14.3 | 
10 | CC(C)CCC[C@@H](C)[C@H]1CC[C@@]2(C)C3=C(CC[C@]12C)[C@@]1(C)CC[C@H](O)C(C)(C)[C@@H]1CC3 [Dihydrolanosterol] | 15.4 | 
11 | C/C=C/c1cc(OC)c2c(c1)[C@@H](C)[C@H](c1ccc3c(c1)OCO3)O2 [Licarin B] | 8.7 | 
12 | C[C@H](CCC(=O)O)[C@H]1CC[C@H]2[C@@H]3C[C@H](O)[C@@H]4C[C@H](O)CC[C@]4(C)[C@H]3CC[C@]12C [Hyodeoxycholic acid] | 36.7 | 
13 | O=C1N[C@@H](Cc2ccc(O)cc2)C(=O)N2CCC[C@@H]12 [Maculosin] | 13.1 | 
14 | O=c1cc(-c2ccc(O)cc2)oc2cc(O)c([C@@H]3O[C@H](CO)[C@@H](O)[C@H](O)[C@H]3O[C@@H]3O[C@H](CO)[C@@H](O)[C@H](O)[C@H]3O)c(O)c12 [Meloside A] | 56.2 | 
15 | O=C(/C=C/c1ccc(O)c(O)c1)O[C@H]1[C@H](O)C[C@](O)(C(=O)O)C[C@H]1O [Cryptochlorogenic acid] | 7.4 | 
16 | O=C(CO)[C@@H](O)[C@H](O)[C@@H](O)CO [(3S,4R,5S)-1,3,4,5,6-Pentahydroxyhexan-2-one] | 8.7 | 
17 | CO[C@@H]1[C@H](O)CC[C@]2(CO2)[C@H]1[C@@]1(C)O[C@@H]1CC=C(C)C [Fumagillol] | 12.4 | 

Random excerpt: two compounds from above, in no set order.
Row | SMILES | 229E Inhibition rate [%] | 229E Inhibition rate (229E Inhibition rate, 24 h) [%]
15 | O=C(/C=C/c1ccc(O)c(O)c1)O[C@H]1[C@H](O)C[C@](O)(C(=O)O)C[C@H]1O [Cryptochlorogenic acid] | 7.4 | 
6 | C[C@H](CCC(=O)NCC(=O)O)[C@H]1CC[C@H]2[C@@H]3[C@H](O)C[C@@H]4C[C@H](O)CC[C@]4(C)[C@H]3C[C@H](O)[C@]12C [Glycocholic acid (hydrate)] |  | 4.1

Additional results follow:

Row | SMILES | 229E Inhibition rate [%] | 229E Inhibition rate (229E Inhibition rate, 24 h) [%]
18 | O=C(O)/C=C/C=C/c1ccccc1 [Cinnamylideneacetic acid] | 11.1 | 
19 | C=C1CCC[C@]2(C)C[C@]3(O)OC(=O)C(C)=C3C[C@@H]12 [Atractylenolide III] | 24 | 
20 | O=c1c(O[C@@H]2O[C@@H](CO)[C@H](O)[C@H]2O)c(-c2ccc(O)c(O)c2)oc2cc(O)cc(O)c12 [Avicularin] | 13.3 | 
21 | C=C1[C@H]2C[C@H]2[C@]2(C)Cc3occ(C)c3[C@H](O)[C@@H]12 [Lindenenol] | 28.5 | 
22 | O[C@]12CO[C@H](c3ccc4c(c3)OCO4)[C@H]1CO[C@@H]2c1ccc2c(c1)OCO2 [Paulownin] | 16.7 | 
23 | CC(C)=CCC[C@@](C)(O)[C@H]1CC[C@]2(C)[C@@H]1[C@H](O)C[C@@H]1[C@@]3(C)CC[C@H](O[C@@H]4O[C@H](CO)[C@@H](O)[C@H](O)[C@H]4O[C@@H]4O[C@H](CO)[C@@H](O)[C@H](O)[C@H]4O)C(C)(C)[C@@H]3CC[C@]12C [(20R)-Ginsenoside Rg3] | 21.4 | 
24 | C[C@@H]1O[C@@H](O[C@H]2[C@H](O[C@H]3CC[C@@]4(C)[C@@H](CC[C@]5(C)[C@@H]4CC=C4[C@@H]6CC(C)(C)CC[C@]6(C(=O)O)CC[C@]45C)[C@]3(C)CO)OC[C@H](O[C@@H]3O[C@H](CO)[C@@H](O)[C@H](O)[C@H]3O)[C@@H]2O)[C@H](O)[C@H](O)[C@H]1O [Pulsatilla saponin D] | 3.9 | 
25 | CC(=O)N[C@H](C(=O)O)C(C)C [Acetylvaline] | 17.3 | 
26 | O=C(O)Cc1ccc(O)c(O)c1 [3,4-Dihydroxybenzeneacetic acid] | 39.5 | 
27 | CCC(C)C(=O)C(=O)O (stereo not drawn) [3-Methyl-2-oxovaleric acid] | 37.4 | 
28 | CC1=CC(=O)c2ccccc2C1=O [Menadione] | 8.7 | 
29 | C=C(CC[C@@H](C(=O)O)[C@H]1[C@H](O)C[C@@]2(C)C3=C(CC[C@]12C)[C@@]1(C)CC[C@H](OC(C)=O)C(C)(C)[C@@H]1CC3)C(C)C [Pachymic acid] | 14.2 | 
30 | Cc1ncccc1O [3-Hydroxy-2-methylpyridine] | 20.2 | 
31 | COc1cc(-c2oc3cc(O[C@@H]4O[C@H](CO)[C@@H](O)[C@H](O)[C@H]4O)cc(O)c3c(=O)c2O)ccc1O [Brassicin] | 9.2 | 
32 | CC(C)=CCC/C(C)=C\CO [Nerol] | 8.9 | 
33 | OC[C@H]1O[C@H](O[C@H]2O[C@H](CO)[C@@H](O)[C@H](O)[C@H]2O)[C@H](O)[C@@H](O)[C@@H]1O [D-(+)-Trehalose dihydrate] |  | 12.4
